This is one part of the list.
Each sequence was assayed against OsWRKY34 (Oryza sativa, UniProt Q0JBA9 1-250) (assay: protein-binding microarray (RPBM); PBS, 2% BSA, 51.3 ng/ul salmon testes DNA, 50 uM zinc acetate, 200 nM TF, 25 C, 1 h; high values mean tight binding). Conditions: protein: recombinant; tags: N-terminal polyhistidine and DsRed monomer fusion (pET32a); label: CyDye5-dUTP incorporated in the synthesized complementary strand; 3' TTTTT single-stranded linker to array surface; dsDNA, one strand shown.
Method in brief: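 Ni–NTA purification followed expression in E. coli BL21-CodonPlus of transcription factors fused N-terminally to a polyhistidine tag and DsRed. At 200 nM in PBS with 2% BSA, salmon testes DNA and 50 µM zinc acetate, the protein was incubated for 1 h at 25 °C with a custom Agilent array that had been primer-extended with Cy5-dUTP and blocked with 2% BSA. After washing, the array was read on an Axon 4000B scanner. The binding signal is per-feature fluorescence intensity in arbitrary units.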

Protein sequences, listed by entry. Tags and fused reporters are not part of them.
UniProt Q0JBA9, entry or part of it: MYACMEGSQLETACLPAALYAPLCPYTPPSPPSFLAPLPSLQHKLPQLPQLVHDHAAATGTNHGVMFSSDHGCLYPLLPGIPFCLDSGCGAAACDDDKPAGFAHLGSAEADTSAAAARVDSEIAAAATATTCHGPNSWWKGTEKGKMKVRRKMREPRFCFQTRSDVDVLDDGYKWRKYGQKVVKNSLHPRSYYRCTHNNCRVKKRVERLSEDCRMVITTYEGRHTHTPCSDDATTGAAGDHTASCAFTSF

Sequence	binding signal
AAGCCCGTTTCTTATTTGTACCTACCAAACCGTCGGAAACCGGAGTCACCTAGTGCAG	8600 fluorescence intensity (a.u.)
TCGCTCTCGCGTCGCGTCCAGGTGCAGCCGTCGTTCTGTTCGGAGTCACCTAGTGCAG	9960 fluorescence intensity (a.u.)
GGTCCCATCTTTGACACGGTCAATGCCGTCTCTGCCCCACCGGAGTCACCTAGTGCAG	8550 fluorescence intensity (a.u.)
GTGGTGGTGGCGGTGGTGGTCCGGCGATGTTGCTGGTGGCCGGAGTCACCTAGTGCAG	11500 fluorescence intensity (a.u.)
TTGTTTGTTATCTTCTCCTTCCTTATTATAAGTTTATCATCGGAGTCACCTAGTGCAG	10500 fluorescence intensity (a.u.)
AATATGCCGTTTCTTTTTTTTTCTTTGAATCTGCCAAACGCGGAGTCACCTAGTGCAG	8580 fluorescence intensity (a.u.)
CCGCTTGCCAACTTAACCGCACTCGCCACTTCTCGGTTGTCGGAGTCACCTAGTGCAG	8200 fluorescence intensity (a.u.)
GCTTCCTAAACCACCCAGAGACATAGTTTCCATCGGTTTTCGGAGTCACCTAGTGCAG	8800 fluorescence intensity (a.u.)
TCCTTTTGCTTTCTTTCTTTTGTGTTTTTCAAATTTCTACCGGAGTCACCTAGTGCAG	9810 fluorescence intensity (a.u.)
ATATTCCCTTACAGCCCTACACACGTTTTGGAGTTTTAACCGGAGTCACCTAGTGCAG	10000 fluorescence intensity (a.u.)
GAACAAAACCCATCTCATCTCCTTGACTCCTTCCCTGTACCGGAGTCACCTAGTGCAG	8630 fluorescence intensity (a.u.)
CCTAATTATCTCTCTCTCCCTACCACGTCGTCTTCTCTTCCGGAGTCACCTAGTGCAG	9340 fluorescence intensity (a.u.)
CACCGAGCCGCCTCCTTCTTTCACCACGCGGTGGATCACCCGGAGTCACCTAGTGCAG	8140 fluorescence intensity (a.u.)
GTCCAGAGTGTTCCCGCACCTCTGTATATTTTTCTCCCTCCGGAGTCACCTAGTGCAG	8590 fluorescence intensity (a.u.)
TTCCATTCCTTCCGTGCTCGATAATTACTGTTTTAATCACCGGAGTCACCTAGTGCAG	10800 fluorescence intensity (a.u.)
ATTTAATTTCTCCTTGGTCTTTGTGACAATAGTAATATGTCGGAGTCACCTAGTGCAG	9200 fluorescence intensity (a.u.)
CTTTATTTTCTGGGGTTAAATTTCTTGTCGGTTCCACTTACGGAGTCACCTAGTGCAG	15800 fluorescence intensity (a.u.)
TTGTCTTCTTGTTTGACTGACGTATGAGCCCACATATTTTCGGAGTCACCTAGTGCAG	9460 fluorescence intensity (a.u.)
CGCCACCTTCTCTCTTCTCTTCTCCTCTCCTCTCGTCTCCCGGAGTCACCTAGTGCAG	8140 fluorescence intensity (a.u.)
ACGTAGACGCGTGGTGTGGTTGTATATTTTCTTTTTCCTGCGGAGTCACCTAGTGCAG	10800 fluorescence intensity (a.u.)
ACGGTCCTCACGGCTTTTTCACATCTCACATCTCGCACTCCGGAGTCACCTAGTGCAG	10900 fluorescence intensity (a.u.)

Sequence	binding signal
TGCAGTGGCTCCGTCGCTCAGTGAACATCCAGTCCCATTTCGGAGTCACCTAGTGCAG	9900 fluorescence intensity (a.u.)
CTTGCACAAATTGGTTTGCCAACTATCACCACGAGGCTCTCGGAGTCACCTAGTGCAG	8650 fluorescence intensity (a.u.)
AAAAGACAAACCCTAATTTCCATGTCCAACGTTTGACCGTCGGAGTCACCTAGTGCAG	9670 fluorescence intensity (a.u.)
TTTCGTTAGCTCACCATTGGAATCCAGTTTCCATTCACTCCGGAGTCACCTAGTGCAG	10600 fluorescence intensity (a.u.)
GTCATCTACCAGCATACAGTGCTTGGCCATCATTCATGCACGGAGTCACCTAGTGCAG	8430 fluorescence intensity (a.u.)
CAATCGTCCGTCAGCAAGCACACACCCCGACTGTGTCGATCGGAGTCACCTAGTGCAG	10300 fluorescence intensity (a.u.)
TTGTAATAGGGGTATTTTGGTCACTTCGTGCTAGCAATTTCGGAGTCACCTAGTGCAG	11400 fluorescence intensity (a.u.)
AGTTCCTCTATTGTTCTCTCTCCCATTCTGTCTCTCACTCCGGAGTCACCTAGTGCAG	9610 fluorescence intensity (a.u.)
CATCTCGCTCTCGCTGCCGGCACGGCTCGCGACTCGTCGCCGGAGTCACCTAGTGCAG	10300 fluorescence intensity (a.u.)
GCCCGCCCGTCCCGTCCGACGTCCGCGTCACGCACGCGCGCGGAGTCACCTAGTGCAG	10100 fluorescence intensity (a.u.)
TGCTTTTCTACTCCTCAACTCCGCTCCACTCTCCACCCGGCGGAGTCACCTAGTGCAG	8160 fluorescence intensity (a.u.)
ACGCCACGCCACCGGCCACCACGACGACCGATCTGTTCATCGGAGTCACCTAGTGCAG	8780 fluorescence intensity (a.u.)
TAGTAAGTGTTGCTGTGATATCTATAATGTATCTGTTTTTCGGAGTCACCTAGTGCAG	8940 fluorescence intensity (a.u.)
ACGCTTGGGTAGCCCTCACTCCCGTGGATTTGCCACCGTTCGGAGTCACCTAGTGCAG	8480 fluorescence intensity (a.u.)
CGTAGGACTAGGAGGGGTCAGGTTGGCTTTTTTTAGATAGCGGAGTCACCTAGTGCAG	10300 fluorescence intensity (a.u.)
AGTCGCTACCGTTCCTTTTCTTCATTTTGGCCCATCAAAGCGGAGTCACCTAGTGCAG	9360 fluorescence intensity (a.u.)
ATATGTCTGACTTGTACTTTTATGTTATTTTTCCTCTAATCGGAGTCACCTAGTGCAG	13900 fluorescence intensity (a.u.)
ATTAGCCTGCCACCTCAGATCCATGGCCTTCTTGTCGGTCCGGAGTCACCTAGTGCAG	11000 fluorescence intensity (a.u.)
TTTATTTATGACGTCATTATTCCCCTCTCGCGCGCCTATACGGAGTCACCTAGTGCAG	8270 fluorescence intensity (a.u.)
TTCCTTTTTTCCAGCCAACCAGTACAGGCTGCATTTATCACGGAGTCACCTAGTGCAG	8980 fluorescence intensity (a.u.)
GCGGCGGCGGCGGGGTGTGGTCTGCGGCCACGGCGAGGACCGGAGTCACCTAGTGCAG	9570 fluorescence intensity (a.u.)

Sequence	binding signal
GGCATTCTGTTTGTTGCTAGCACTGTTTTTGTTACATGTTCGGAGTCACCTAGTGCAG	14600 fluorescence intensity (a.u.)
GAAATAGGAGTAGGTTTTATCGTTCTTTTGTGTTTAATACCGGAGTCACCTAGTGCAG	8310 fluorescence intensity (a.u.)
CCCTACTTCCCATCAAAGATACTTTGCTGCTTTGTTTATTCGGAGTCACCTAGTGCAG	8530 fluorescence intensity (a.u.)
TTTTGCGCGGATGGCCCTTTACTTTTCCCCTCTTGTCCTCCGGAGTCACCTAGTGCAG	10400 fluorescence intensity (a.u.)
CTTGTTGATGTGGGTGTTTCTTGGTCGATCCTTCTTGTTTCGGAGTCACCTAGTGCAG	8330 fluorescence intensity (a.u.)
TTTTAGCTCTTACATGAGAGTCAACCCTTCTCACTTATTTCGGAGTCACCTAGTGCAG	8040 fluorescence intensity (a.u.)
AGGTTCATCTCTCCAATCCTAGACATCATTTTTGCTACACCGGAGTCACCTAGTGCAG	8120 fluorescence intensity (a.u.)
GCTACTTCTTCCCCATCACCACCACCACCACCATCGCTTTCGGAGTCACCTAGTGCAG	8850 fluorescence intensity (a.u.)
TATTCACCAGCTCTGTTGTTTACTTGCTTCACCAACATACCGGAGTCACCTAGTGCAG	8930 fluorescence intensity (a.u.)
TCGAAGATGGGACCTTTGATCTGCTGTGTTGCACATTTTTCGGAGTCACCTAGTGCAG	9970 fluorescence intensity (a.u.)
CATGGCCTCCTCGCCCGTCTCGCTCTCGCGCCGCCACCACCGGAGTCACCTAGTGCAG	9060 fluorescence intensity (a.u.)
CCTGTGCCAGCTTGGACTCTCTCATCTCACCCCTTTCTTTCGGAGTCACCTAGTGCAG	8300 fluorescence intensity (a.u.)
GGGAGATCGAACTGTTGCTTCTGGTTTTTGGGGCCGGATTCGGAGTCACCTAGTGCAG	9290 fluorescence intensity (a.u.)
TTCATGTCAGTTAGTTGGTGCCTAATTTTTACTAGCAATTCGGAGTCACCTAGTGCAG	8660 fluorescence intensity (a.u.)
TGATCTACCTCTCCACAATTCAATCCATTTCTTCCTCTACCGGAGTCACCTAGTGCAG	10200 fluorescence intensity (a.u.)
ACGCATCAACAGTGGAGGGAGGGGAGGGGAGGAGCTTCCCCGGAGTCACCTAGTGCAG	12600 fluorescence intensity (a.u.)
TGTTTTGACACTATTTGGCACTGTTCAAACAGCGGTACCGCGGAGTCACCTAGTGCAG	10700 fluorescence intensity (a.u.)
TTCCGCGTTCTCTTTCGTTCTCGCTTAGACCTCAGCTTACCGGAGTCACCTAGTGCAG	11800 fluorescence intensity (a.u.)
CTTACGACAACCCGCCATGTCTTTTTTTCCGCCATAAGTACGGAGTCACCTAGTGCAG	11600 fluorescence intensity (a.u.)
AGAATGTTTGCTCAAAGTATGTTTTTGTCATCTGTTTTTCCGGAGTCACCTAGTGCAG	8800 fluorescence intensity (a.u.)
TTTTTTTCTATCTAGGTATAATCCGAACGAGCCCATAATTCGGAGTCACCTAGTGCAG	8350 fluorescence intensity (a.u.)

Sequence	binding signal
TTGCCGGTCGGCGCCCATGGTTTTTCCCGCAAGGATTTTCCGGAGTCACCTAGTGCAG	8670 fluorescence intensity (a.u.)
ACACACACACACACCCACCACACCACCCCGGCCGCTTCCGCGGAGTCACCTAGTGCAG	12200 fluorescence intensity (a.u.)
CCACACCGAATCCCAACCACCATTGCCGCGCCGAGCTCTTCGGAGTCACCTAGTGCAG	8560 fluorescence intensity (a.u.)
CTCGATCCTTCCATCTCCTCGTCTTCTCGTTTTTCCCGACCGGAGTCACCTAGTGCAG	9550 fluorescence intensity (a.u.)
ATCAATCCACCACTCCATTATTTTGCGTAATTTTTTCCCCCGGAGTCACCTAGTGCAG	8980 fluorescence intensity (a.u.)
TGTGGTGTTCGTCTTCTTGGTGGATCTTGCTGCTGGTATACGGAGTCACCTAGTGCAG	8720 fluorescence intensity (a.u.)
GTGCTGGAGGAGTTCGTTGTCATCACATATCCGCAACCGACGGAGTCACCTAGTGCAG	8730 fluorescence intensity (a.u.)
TATGTCCGGTACAATCTCATTTCCATCGTATAGCGACCGTCGGAGTCACCTAGTGCAG	10100 fluorescence intensity (a.u.)
GTTCGTCCCGCTGCTTCCGCCGCATCCGTTGCGCACATCCCGGAGTCACCTAGTGCAG	11400 fluorescence intensity (a.u.)
ACTTTTAAACCCATGTTTTACCATTCATCTTAATAAAAAACGGAGTCACCTAGTGCAG	8840 fluorescence intensity (a.u.)
GGTATTGGTTTGTTGACTCGTACTCTCGTACTGGTCATTGCGGAGTCACCTAGTGCAG	9040 fluorescence intensity (a.u.)
CGCCTCCGAGTCCCAAAACCCTAGCCATTTCTGGTTCCCTCGGAGTCACCTAGTGCAG	9320 fluorescence intensity (a.u.)
CCTCGACCTCTCGCTACTCCAGGCGCCGCCCCATCAGATGCGGAGTCACCTAGTGCAG	8200 fluorescence intensity (a.u.)
ACATGTCACATATTACGTCCATTTGAGTTCAATTTTTCTACGGAGTCACCTAGTGCAG	10700 fluorescence intensity (a.u.)
CTTCTTAGCTTCCGTGTCATGTTTCTTTTTGTTATCTTTTCGGAGTCACCTAGTGCAG	10800 fluorescence intensity (a.u.)
GGCCCACTTATTTCCGACCACCGACGGCCGCGAGCGGCCCCGGAGTCACCTAGTGCAG	8810 fluorescence intensity (a.u.)
CCAGCACGACGTACTGCACCACCGCGGCACCCAACTCAAGCGGAGTCACCTAGTGCAG	8290 fluorescence intensity (a.u.)
GTGGAATCGTTCGTTCTTGACTTCACCTACCAAGATTTGCCGGAGTCACCTAGTGCAG	8640 fluorescence intensity (a.u.)
AGGATCCAGCTCTTACGGCCCAATCTCCATCACGATCTCACGGAGTCACCTAGTGCAG	8350 fluorescence intensity (a.u.)
ATTAATACAGGTGATAGGGTAGGGTTAGCTTTTGACTCTTCGGAGTCACCTAGTGCAG	11300 fluorescence intensity (a.u.)
AACCAAAATTCCAACTTGTCATCCATGCATGCATCCTCCACGGAGTCACCTAGTGCAG	8170 fluorescence intensity (a.u.)

— article PMC7819943, “Rice protein-binding microarrays: a tool to detect cis-acting elements near promoter regions in rice”
